# Experimental data as given in patent publication US7928063B2 (Instytut Farmaceutyczny, priority 2001, dated 2011).
# HELM strings list residues between dots; [ac] is acetyl, [am] amide, other brackets name non-standard units.
# Assay: general procedure: Boc solid-phase peptide synthesis; MBHA resin (4-methylbenzhydrylamine resin, Bachem California or Novabiochem, ca. 0.5 meq./g)
# Settings: whole synthesis, scale of the general procedure 3.1 g of MBHA resin (0.49 meq./g)
substance,measurement,value
PEPTIDE1{[Dat].A.D.A.I.F.T.N.S.Y.[hArg].[hArg].V.L.A.Q.L.S.A.[hArg].[hArg].L.L.Q.D.I.[Nle].D.[hArg].[am]}$$$$V2.0,crude HPLC purity,50%
same,final HPLC purity,92.3%
